Assay results taken from article PMC3065485.
These are yes or no findings as the source states them, for the method shown. In cells and extracts the contact can be indirect. A yes stands for co-enrichment or nearness to the bait. Other partners may have been found.

Sequences of proteins named here, by UniProt entry; tags and fusion partners are left off.
UniProt P25655: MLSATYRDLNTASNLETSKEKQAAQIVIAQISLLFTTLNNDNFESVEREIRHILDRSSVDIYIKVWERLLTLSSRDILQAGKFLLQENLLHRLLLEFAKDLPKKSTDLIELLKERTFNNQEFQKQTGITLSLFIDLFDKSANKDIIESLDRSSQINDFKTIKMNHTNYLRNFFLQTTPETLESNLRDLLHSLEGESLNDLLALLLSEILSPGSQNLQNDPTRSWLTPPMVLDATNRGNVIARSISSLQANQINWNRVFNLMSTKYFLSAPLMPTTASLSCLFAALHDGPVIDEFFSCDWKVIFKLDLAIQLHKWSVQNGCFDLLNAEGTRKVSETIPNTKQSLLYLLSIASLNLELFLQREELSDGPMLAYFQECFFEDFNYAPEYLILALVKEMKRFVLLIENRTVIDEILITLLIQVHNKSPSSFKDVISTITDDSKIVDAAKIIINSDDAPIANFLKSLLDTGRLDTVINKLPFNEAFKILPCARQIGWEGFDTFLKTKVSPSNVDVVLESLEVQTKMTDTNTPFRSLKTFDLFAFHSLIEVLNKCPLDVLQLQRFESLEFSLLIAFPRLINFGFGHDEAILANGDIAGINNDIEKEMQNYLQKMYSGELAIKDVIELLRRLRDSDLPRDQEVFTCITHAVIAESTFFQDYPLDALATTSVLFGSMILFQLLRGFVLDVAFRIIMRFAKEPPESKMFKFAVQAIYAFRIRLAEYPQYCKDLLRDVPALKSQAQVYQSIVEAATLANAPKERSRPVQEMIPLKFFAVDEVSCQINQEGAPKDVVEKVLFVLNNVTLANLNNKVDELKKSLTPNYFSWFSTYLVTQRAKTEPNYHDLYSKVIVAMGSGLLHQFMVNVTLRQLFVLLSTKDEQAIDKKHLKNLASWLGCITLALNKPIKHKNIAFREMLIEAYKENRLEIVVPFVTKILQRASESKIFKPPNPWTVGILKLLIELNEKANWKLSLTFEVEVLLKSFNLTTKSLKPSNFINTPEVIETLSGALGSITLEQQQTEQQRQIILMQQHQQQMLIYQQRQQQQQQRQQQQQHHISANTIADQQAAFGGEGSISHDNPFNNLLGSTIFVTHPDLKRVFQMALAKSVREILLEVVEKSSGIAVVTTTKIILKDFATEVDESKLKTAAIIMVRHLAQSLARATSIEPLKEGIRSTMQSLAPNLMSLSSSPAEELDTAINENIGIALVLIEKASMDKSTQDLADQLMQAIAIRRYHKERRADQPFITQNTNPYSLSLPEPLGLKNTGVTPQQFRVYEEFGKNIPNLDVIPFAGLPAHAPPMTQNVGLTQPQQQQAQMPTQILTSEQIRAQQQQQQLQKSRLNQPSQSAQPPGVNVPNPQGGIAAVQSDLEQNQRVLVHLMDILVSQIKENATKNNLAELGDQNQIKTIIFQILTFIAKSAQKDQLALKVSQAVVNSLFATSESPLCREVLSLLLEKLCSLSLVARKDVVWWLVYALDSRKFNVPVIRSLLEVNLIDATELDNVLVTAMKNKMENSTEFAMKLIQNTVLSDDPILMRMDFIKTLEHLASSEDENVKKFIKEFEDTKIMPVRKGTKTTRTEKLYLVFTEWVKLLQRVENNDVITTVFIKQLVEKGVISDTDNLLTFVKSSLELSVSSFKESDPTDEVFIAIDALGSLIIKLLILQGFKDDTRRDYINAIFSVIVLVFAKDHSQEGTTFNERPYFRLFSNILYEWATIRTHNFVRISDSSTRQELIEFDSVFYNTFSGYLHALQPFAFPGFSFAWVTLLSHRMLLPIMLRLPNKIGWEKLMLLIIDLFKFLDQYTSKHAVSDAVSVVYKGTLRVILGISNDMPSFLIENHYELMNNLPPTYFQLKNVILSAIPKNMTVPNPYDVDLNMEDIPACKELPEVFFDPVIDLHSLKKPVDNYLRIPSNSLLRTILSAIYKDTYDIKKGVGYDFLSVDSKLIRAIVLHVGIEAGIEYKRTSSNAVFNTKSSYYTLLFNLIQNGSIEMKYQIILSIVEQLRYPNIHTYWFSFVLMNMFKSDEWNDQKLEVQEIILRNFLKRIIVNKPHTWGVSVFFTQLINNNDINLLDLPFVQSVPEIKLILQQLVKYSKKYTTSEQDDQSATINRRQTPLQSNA
UniProt Q02455: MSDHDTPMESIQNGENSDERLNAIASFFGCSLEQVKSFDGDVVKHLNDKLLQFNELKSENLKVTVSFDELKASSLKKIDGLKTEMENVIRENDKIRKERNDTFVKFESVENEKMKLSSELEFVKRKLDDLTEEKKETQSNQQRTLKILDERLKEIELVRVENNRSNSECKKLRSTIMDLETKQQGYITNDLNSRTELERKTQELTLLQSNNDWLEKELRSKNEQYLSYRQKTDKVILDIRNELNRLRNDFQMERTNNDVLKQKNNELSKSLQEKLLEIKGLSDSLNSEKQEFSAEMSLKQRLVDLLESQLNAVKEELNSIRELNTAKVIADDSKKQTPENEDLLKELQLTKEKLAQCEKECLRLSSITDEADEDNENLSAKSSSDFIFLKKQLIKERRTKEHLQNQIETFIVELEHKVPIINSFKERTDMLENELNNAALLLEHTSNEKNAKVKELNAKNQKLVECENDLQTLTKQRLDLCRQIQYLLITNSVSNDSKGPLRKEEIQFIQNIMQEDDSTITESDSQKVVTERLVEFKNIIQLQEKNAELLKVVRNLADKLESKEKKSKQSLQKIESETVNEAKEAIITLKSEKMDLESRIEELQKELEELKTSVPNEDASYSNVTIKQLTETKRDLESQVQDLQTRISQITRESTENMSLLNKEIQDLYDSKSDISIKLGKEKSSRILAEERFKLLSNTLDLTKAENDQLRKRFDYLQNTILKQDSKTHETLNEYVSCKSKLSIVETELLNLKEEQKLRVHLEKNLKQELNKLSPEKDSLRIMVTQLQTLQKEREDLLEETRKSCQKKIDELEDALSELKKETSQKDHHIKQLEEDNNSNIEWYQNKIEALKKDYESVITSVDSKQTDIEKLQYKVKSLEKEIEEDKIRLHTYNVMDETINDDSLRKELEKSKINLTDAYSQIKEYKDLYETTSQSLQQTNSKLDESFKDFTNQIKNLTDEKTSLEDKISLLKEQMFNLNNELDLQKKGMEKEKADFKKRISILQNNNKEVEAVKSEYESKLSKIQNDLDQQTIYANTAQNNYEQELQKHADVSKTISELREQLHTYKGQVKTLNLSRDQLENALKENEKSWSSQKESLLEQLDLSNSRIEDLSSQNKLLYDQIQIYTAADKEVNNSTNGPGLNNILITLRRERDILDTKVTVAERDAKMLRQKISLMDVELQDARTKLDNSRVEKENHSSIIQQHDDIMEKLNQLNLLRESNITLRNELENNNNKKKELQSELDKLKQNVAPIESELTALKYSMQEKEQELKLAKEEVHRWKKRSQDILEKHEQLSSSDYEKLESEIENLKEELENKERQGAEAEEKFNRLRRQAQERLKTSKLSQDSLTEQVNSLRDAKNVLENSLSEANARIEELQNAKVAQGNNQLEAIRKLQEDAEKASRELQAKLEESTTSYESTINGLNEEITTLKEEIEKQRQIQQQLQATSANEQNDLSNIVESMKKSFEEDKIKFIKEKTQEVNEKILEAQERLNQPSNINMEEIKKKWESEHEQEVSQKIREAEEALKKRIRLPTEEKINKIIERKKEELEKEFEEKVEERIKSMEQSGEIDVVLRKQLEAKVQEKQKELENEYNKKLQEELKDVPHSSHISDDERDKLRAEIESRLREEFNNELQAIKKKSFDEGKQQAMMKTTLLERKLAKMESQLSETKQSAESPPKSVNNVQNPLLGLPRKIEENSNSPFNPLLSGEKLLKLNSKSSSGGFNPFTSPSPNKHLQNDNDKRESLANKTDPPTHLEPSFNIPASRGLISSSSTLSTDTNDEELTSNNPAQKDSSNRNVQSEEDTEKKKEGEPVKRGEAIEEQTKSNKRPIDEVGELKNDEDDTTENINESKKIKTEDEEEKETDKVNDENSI
UniProt P40457: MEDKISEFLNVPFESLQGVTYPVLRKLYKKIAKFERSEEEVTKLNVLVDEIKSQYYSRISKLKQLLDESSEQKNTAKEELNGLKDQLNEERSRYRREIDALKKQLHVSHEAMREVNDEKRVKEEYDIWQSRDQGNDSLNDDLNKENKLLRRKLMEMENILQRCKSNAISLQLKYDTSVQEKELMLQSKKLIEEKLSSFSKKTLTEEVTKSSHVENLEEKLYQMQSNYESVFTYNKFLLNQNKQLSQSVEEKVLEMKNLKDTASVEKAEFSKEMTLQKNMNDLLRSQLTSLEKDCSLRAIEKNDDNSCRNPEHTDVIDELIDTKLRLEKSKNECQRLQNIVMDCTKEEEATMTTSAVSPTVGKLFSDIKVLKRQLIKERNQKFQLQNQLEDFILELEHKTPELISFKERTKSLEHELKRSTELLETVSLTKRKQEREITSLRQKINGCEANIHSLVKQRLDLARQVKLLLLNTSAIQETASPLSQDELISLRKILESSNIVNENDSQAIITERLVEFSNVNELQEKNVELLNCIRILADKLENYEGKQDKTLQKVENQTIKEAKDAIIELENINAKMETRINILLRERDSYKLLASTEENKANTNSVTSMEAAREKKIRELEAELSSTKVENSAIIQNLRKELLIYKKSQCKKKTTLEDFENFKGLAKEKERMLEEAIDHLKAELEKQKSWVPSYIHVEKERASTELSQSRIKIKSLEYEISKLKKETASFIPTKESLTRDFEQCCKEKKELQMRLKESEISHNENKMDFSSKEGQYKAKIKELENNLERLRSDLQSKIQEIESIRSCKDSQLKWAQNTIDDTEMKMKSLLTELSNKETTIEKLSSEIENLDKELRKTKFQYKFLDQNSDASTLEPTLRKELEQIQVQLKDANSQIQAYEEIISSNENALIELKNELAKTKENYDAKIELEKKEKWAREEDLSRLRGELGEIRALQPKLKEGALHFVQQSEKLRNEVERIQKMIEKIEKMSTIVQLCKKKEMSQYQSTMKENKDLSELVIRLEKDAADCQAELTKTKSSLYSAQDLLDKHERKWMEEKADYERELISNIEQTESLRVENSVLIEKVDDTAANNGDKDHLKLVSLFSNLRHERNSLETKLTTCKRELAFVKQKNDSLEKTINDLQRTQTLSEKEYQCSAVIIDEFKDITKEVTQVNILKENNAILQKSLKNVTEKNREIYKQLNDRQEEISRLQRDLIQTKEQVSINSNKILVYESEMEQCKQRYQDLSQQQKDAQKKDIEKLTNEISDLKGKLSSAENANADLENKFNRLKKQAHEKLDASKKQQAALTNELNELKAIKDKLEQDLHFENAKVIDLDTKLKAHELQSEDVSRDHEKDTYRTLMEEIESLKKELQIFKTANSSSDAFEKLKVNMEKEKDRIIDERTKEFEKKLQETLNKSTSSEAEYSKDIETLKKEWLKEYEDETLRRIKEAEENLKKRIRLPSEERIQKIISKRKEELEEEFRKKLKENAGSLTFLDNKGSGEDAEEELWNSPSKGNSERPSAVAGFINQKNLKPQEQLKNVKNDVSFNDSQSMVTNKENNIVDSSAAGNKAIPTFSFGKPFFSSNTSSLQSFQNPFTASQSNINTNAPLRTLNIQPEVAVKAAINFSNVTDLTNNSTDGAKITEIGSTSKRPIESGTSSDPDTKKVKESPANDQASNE
UniProt P10659: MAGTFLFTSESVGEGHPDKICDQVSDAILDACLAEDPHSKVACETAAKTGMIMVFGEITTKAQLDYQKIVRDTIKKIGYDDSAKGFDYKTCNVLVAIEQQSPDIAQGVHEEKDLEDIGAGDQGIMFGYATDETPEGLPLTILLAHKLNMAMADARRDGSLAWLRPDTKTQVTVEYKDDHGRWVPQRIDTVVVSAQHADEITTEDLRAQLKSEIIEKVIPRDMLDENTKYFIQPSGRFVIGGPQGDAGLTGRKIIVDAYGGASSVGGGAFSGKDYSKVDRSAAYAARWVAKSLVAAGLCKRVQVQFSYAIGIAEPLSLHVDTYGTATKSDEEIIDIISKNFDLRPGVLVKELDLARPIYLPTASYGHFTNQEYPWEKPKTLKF
UniProt P19358: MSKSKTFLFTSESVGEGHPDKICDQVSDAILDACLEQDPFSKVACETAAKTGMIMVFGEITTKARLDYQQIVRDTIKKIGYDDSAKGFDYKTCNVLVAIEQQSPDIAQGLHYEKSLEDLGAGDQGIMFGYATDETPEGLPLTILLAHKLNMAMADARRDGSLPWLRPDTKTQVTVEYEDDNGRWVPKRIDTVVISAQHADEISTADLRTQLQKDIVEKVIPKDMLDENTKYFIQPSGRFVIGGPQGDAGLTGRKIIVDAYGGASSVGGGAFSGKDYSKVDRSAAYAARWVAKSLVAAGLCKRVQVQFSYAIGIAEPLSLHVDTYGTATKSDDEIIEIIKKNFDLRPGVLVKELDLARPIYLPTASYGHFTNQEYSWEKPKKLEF

T1: Caf130-TAP (S. cerevisiae) (UniProt P53280)
T1 sequence: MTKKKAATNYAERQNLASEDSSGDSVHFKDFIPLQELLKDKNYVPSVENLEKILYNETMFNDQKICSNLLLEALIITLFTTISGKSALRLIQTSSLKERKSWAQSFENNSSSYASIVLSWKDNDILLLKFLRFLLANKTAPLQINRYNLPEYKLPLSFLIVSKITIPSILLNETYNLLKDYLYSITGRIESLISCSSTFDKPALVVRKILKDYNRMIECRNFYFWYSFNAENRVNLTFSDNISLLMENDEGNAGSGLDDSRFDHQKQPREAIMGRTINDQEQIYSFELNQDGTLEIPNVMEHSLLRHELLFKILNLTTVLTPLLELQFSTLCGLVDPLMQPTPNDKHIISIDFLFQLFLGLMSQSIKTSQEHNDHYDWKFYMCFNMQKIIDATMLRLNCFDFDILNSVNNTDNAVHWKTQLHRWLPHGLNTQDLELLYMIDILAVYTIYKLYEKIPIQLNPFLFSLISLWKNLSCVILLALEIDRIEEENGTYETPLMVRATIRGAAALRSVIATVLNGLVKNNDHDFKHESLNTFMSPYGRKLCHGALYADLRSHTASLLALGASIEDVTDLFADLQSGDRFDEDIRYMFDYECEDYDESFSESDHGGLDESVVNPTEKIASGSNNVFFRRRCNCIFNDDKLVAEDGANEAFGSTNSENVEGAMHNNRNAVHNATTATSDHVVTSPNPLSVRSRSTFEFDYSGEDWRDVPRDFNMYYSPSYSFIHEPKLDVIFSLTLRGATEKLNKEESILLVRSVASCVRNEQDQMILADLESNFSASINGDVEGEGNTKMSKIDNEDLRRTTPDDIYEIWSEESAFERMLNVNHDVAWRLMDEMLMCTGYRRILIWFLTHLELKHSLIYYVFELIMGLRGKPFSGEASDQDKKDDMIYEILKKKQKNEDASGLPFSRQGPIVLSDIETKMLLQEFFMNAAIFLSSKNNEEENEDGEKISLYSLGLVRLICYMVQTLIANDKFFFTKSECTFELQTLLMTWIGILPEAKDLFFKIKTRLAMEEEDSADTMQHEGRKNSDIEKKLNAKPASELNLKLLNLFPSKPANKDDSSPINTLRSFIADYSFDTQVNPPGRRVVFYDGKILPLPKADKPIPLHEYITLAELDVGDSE

T2: Caf40-TAP (S. cerevisiae) (UniProt P53829)
T2 sequence: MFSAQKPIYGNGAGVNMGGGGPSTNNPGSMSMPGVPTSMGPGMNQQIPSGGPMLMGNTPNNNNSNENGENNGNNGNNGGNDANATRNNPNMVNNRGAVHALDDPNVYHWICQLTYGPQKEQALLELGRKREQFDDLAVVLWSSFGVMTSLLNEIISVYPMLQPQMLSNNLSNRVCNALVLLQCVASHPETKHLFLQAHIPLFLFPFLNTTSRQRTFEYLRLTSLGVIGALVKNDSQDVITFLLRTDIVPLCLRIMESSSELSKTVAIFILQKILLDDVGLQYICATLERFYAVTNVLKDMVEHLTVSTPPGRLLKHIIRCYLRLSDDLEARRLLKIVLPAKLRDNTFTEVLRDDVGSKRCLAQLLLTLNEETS

T3: Not2-TAP (S. cerevisiae) (UniProt P06100)
T3 sequence: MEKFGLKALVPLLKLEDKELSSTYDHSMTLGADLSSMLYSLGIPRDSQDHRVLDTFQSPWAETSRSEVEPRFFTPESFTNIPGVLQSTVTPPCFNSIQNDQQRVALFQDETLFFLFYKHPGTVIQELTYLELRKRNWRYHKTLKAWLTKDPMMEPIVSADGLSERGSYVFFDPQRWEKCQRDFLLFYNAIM

T4: Not5-TAP (S. cerevisiae) (UniProt Q12514)
T4 sequence: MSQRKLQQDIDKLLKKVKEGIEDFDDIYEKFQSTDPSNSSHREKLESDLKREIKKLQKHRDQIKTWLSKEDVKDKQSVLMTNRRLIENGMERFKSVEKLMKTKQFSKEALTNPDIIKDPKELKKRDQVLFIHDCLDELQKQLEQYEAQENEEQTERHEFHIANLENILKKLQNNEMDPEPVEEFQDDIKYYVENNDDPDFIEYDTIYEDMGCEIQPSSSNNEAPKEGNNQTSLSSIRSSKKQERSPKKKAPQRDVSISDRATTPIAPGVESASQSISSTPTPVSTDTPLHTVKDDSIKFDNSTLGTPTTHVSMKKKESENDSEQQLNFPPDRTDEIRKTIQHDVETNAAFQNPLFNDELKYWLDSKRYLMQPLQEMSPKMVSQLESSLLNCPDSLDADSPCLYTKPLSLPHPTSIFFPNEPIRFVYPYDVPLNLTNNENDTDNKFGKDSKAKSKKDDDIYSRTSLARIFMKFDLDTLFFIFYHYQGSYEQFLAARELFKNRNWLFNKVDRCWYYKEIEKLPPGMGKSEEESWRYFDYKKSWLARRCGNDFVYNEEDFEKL

T5: Not4-TAP (S. cerevisiae) (UniProt P34909)
T5 sequence: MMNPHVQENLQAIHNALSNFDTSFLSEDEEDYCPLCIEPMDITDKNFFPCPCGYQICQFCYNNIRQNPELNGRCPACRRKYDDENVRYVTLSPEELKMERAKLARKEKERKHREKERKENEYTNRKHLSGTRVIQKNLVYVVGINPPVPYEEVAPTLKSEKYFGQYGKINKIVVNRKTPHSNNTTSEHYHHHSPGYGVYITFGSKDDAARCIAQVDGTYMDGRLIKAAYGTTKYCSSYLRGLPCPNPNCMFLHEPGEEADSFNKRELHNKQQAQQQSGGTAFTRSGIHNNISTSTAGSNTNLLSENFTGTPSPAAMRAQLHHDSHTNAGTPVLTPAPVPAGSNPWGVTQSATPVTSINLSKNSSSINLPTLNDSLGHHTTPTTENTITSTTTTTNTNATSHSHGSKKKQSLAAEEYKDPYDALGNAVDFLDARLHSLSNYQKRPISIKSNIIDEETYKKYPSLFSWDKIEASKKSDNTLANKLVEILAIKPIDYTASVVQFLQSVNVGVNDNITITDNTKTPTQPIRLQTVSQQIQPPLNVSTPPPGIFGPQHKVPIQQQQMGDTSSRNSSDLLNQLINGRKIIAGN

T6: Not3-TAP (S. cerevisiae) (UniProt P06102)
T6 sequence: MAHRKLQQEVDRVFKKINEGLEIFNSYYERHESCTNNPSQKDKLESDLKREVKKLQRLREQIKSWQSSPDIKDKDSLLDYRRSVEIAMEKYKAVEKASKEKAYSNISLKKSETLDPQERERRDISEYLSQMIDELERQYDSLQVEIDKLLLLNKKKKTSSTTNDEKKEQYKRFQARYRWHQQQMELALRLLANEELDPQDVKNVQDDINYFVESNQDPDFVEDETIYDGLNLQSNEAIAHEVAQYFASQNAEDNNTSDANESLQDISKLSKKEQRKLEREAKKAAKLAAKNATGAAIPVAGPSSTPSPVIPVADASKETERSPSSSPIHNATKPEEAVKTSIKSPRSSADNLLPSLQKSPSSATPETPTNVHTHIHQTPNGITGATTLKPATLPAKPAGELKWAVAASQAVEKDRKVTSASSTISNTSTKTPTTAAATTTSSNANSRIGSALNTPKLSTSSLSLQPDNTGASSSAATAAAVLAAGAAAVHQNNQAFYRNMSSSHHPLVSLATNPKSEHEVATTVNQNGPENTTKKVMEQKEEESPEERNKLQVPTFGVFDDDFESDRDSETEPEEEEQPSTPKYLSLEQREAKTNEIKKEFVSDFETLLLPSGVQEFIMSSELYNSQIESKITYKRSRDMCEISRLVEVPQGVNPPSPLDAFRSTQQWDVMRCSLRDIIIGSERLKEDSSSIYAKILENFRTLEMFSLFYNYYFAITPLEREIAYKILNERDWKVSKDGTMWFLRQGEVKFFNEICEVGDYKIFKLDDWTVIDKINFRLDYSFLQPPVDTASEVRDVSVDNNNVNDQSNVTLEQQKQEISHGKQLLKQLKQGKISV


Legend:
[1] = molecular target: T1, Caf130-TAP (S. cerevisiae); assay: affinity purification with mass spectrometry; tandem affinity purification of the TAP-tagged Ccr4-Not subunit from yeast whole cell extract (wild type or caf130Δ, not3Δ, caf40Δ backgrounds); SDS-PAGE, Coomassie bands excised, MALDI-TOF, MASCOT search
[2] = molecular target: T2, Caf40-TAP (S. cerevisiae); assay: as above
Not1-TAP (S. cerevisiae) = Not1-TAP (S. cerevisiae) (UniProt P25655); assay: as above
Not2-TAP (S. cerevisiae) [3] = molecular target: T3, Not2-TAP (S. cerevisiae); assay: as above
Not5-TAP (S. cerevisiae) = molecular target: T4, Not5-TAP (S. cerevisiae); assay: affinity purification with mass spectrometry; tandem affinity purification of the TAP-tagged Ccr4-Not subunit from caf130Δ yeast whole cell extract; excised gel bands analysed by NanoLC-ESI-MS/MS, Mascot and Scaffold
Not4-TAP (S. cerevisiae) = molecular target: T5, Not4-TAP (S. cerevisiae); assay: affinity purification with mass spectrometry; tandem affinity purification of the TAP-tagged Ccr4-Not subunit from yeast whole cell extract (wild type or caf130Δ, not3Δ, caf40Δ backgrounds); SDS-PAGE, Coomassie bands excised, MALDI-TOF, MASCOT search
Not2-TAP (S. cerevisiae) [4] = molecular target: T3, Not2-TAP (S. cerevisiae); assay: affinity purification with mass spectrometry; tandem affinity purification of the TAP-tagged Ccr4-Not subunit from caf130Δ yeast whole cell extract; excised gel bands analysed by NanoLC-ESI-MS/MS, Mascot and Scaffold
Not3-TAP (S. cerevisiae) = molecular target: T6, Not3-TAP (S. cerevisiae); assay: affinity purification with mass spectrometry; tandem affinity purification of the TAP-tagged Ccr4-Not subunit from yeast whole cell extract (wild type or caf130Δ, not3Δ, caf40Δ backgrounds); SDS-PAGE, Coomassie bands excised, MALDI-TOF, MASCOT search

| binding [2] | binding (Not2-TAP (S. cerevisiae) [3]) | binding (Not4-TAP (S. cerevisiae)) | Molecule | also measured |
| --- | --- | --- | --- | --- |
| binds | binds | – | Mlp1 (from UniProt Q02455 1-1875) | binding [1]: binds; binding (Not1-TAP (S. cerevisiae)): binds |
| binds | – | binds | Mlp2 (from UniProt P40457 1-1679) | binding (Not5-TAP (S. cerevisiae)): binds |
| – | – | – | Nup2 (from UniProt P32499 1-720) | binding (Not2-TAP (S. cerevisiae) [4]): binds |
| binds | – | – | Nup60 (from UniProt P39705 1-539) | – |
| binds | binds | binds | Sam1 (from UniProt P10659 1-382) (enzyme) | – |
| binds | – | binds | Sam2 (from UniProt P19358 1-384) (enzyme) | – |
| binds | binds | – | Mft1 (protein, UniProt P33441 1-392) MPLSQKQIDQVRTKVHYSEVDTPFNKYLDILGKVTKLTGSIINGTLSNDDSKIEKLTEQNISQLKESAHLRFLDLQSSIDTKKVADENWETCQQETLAKLENLKDKLPDIKSIHSKLLLRIGKLQGLYDSVQVINREVEGLSEGRTSLVVTRAEWEKELGTDLVKFLIEKNYLKLVDPGLKKDSSEERYRIYDDFSKGPKELESINASMKSDIENVRQEVSSYKEKWLRDAEIFGKITSIFKEELLKRDGLLNEAEGDNIDEDYESDEDEERKERFKRQRSMVEVNTIENVDEKEESDHEYDDQEDEENEEEDDMEVDVEDIKEDNEVDGESSQQEDNSRQGNNEETDKETGVIEEPDAVNDAEEADSDHSSRKLGGTTSDFSASSSVEEVK | binding (Not3-TAP (S. cerevisiae)): binds |
